pKd: −log10 of the molar value. For part of these data: Tags and fusion partners may be left off the protein sequences shown. The exact form of at least one protein or probe is not confirmed. For part of these data: At least one verdict rests on a figure or table, not on a statement of the authors.
Tests used:
[1] = molecular target: DasRSco (ScoDasR) (Streptomyces coelicolor) (UniProt Q9K492); test: EMSA; details: EMSA: 10 mM Tris-HCl pH 8.0, 25 mM MgCl2, 50 mM NaCl, 1 mM DTT, 1 mM EDTA, 0.01% NP-40, 50 ug/mL poly(dIdC), 10% glycerol, 18 C, 30 min, recombinant protein, residues 1-254, protein details: His, label: 5'-biotin, probe letters rebuilt from the primers and the genome
[2] = molecular target: T1, DasR (Saccharopolyspora erythraea) (UniProt A4F723); test: EMSA; details: EMSA: 10 mM Tris-HCl pH 8.0, 25 mM MgCl2, 50 mM NaCl, 1 mM DTT, 1 mM EDTA, 0.01% NP-40, 50 ug/mL poly(dIdC), 10% glycerol, 18 C, 30 min, recombinant protein, residues 1-251, protein details: His (pET-28a), label: 5'-biotin, probe letters rebuilt from the primers and the genome
T1 sequence (looked up): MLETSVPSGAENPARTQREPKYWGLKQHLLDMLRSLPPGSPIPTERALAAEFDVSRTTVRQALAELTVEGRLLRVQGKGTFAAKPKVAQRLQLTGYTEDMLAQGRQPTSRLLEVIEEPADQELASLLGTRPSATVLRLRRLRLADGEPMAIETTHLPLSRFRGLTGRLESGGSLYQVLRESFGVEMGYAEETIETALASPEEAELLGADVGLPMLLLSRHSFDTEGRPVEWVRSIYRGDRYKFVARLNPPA

By UniProt entry, the sequences of proteins in these tests, tags left out. Where a name states a change or a piece, a line headed by the entry shows the natural chain unless it says otherwise.
UniProt Q9K492: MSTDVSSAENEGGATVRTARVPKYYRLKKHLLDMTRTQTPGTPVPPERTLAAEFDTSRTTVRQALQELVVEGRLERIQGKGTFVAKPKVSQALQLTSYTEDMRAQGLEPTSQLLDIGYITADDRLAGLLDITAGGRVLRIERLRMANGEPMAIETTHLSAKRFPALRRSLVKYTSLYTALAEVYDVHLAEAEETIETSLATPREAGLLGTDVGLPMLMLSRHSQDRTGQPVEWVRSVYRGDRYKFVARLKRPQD

[3] = molecular target: T1, DasR (Saccharopolyspora erythraea); test: BLI; details: BLI: 10 mM HEPES pH 8.0, 2 mM MgCl2, 0.1 mM EDTA, 200 mM KCl (running buffer + 10 ug/mL BSA, 0.02% Tween-20), recombinant protein, residues 1-251, protein details: His (pET-28a), label: 5'-biotin, probe letters rebuilt from the primers and the genome

“AGCCAGTGGCGATAAGGACAGGAAGCTGTTCTTCCGTGGCGGGGGCGGGGCCGGAGTCGTCCGTTCGGGGTGCCTGCGGCGGCCTGTGCGGGTGCGGTGGGGGTGCGCGTAGCGCCGTTTGTCCGGTGGGTGGGTCGGGGGCGCGCCGGGGGGTGTCCGTCCTCGGAACGGCGCGGAATCGGTCACTTGAAAAGGCTCGGGGCGTTGACGCGCCAACCGCTGCGGGCGGACACCCCCCGACACGCCCCCTCCTCGCCGTACGCCGCTCTCCCCGCCCACACTCCGCGTCCCCCGCCCCGCCGTACGCGGCTGACCGTCCAATCCCGCTCAGCTGCGGGCAGCCGCCACGCCGCCCCAGCTGCGGGCAGTCGTGCCGCTGGGGCGGCACGGGTGGGCGCAGCGGCACCCCGCAACGCCGGGCCGCGCTCCTTATCGCCACTGGCT (double strand) [disA promoter (SCO3351)]”: binds ([1]; 30 uM c-di-AMP, binding strongly enhanced); binds ([1]; c-di-GMP, little difference); binds ([1]; cAMP, little difference). “AGCCAGTGGCGATAAGGACAGGAAGCTGTTCTTCCGTGGCGGGGGCGGGGCCGGAGTCGTCCGTTCGGGGTGCCTGCGGCGGCCTGTGCGGGTGCGGTGGGGGTGCGCGTAGCGCCGTTTGTCCGGTGGGTGGGTCGGGGGCGCGCCGGGGGGTGTCCGTCCTCGGAACGGCGCGGAATCGGTCACTTGAAAAGGCTCGGGGCGTTGACGCGCCAACCGCTGCGGGCGGACACCCCCCGACACGCCCCCTCCTCGCCGTACGCCGCTCTCCCCGCCCACACTCCGCGTCCCCCGCCCCGCCGTACGCGGCTGACCGTCCAATCCCGCTCAGCTGCGGGCAGCCGCCACGCCGCCCCAGCTGCGGGCAGTCGTGCCGCTGGGGCGGCACGGGTGGGCGCAGCGGCACCCCGCAACGCCGGGCCGCGCTCCTTATCGCCACTGGCT (double strand) [disA promoter (SCO3351)]”: binds ([1]; cGMP, little difference); binds ([1]; no c-di-AMP).
“AGCCAGTGGCGATAAGCGCATGTGAGGTCACGAGCCGATCCTCCGCTACGGTTCCCCCAGTGGTCTACACCAACACGTGTGGTGTTGATTCTGGACGAACTGTCCCCGGCGGGGCGAGCCGGCCGTCGCGCCTCGCGCGGGACCCGCCCGCGGAGTACCCGCTCGGCGCCCTTCATCGCTCAACTCGCGTGGCGGTGCCCGACGGTGGGGCCCAAGCGGCTGCGCCGCTTCGAAGAACGAGAACAGGCACTCAGGTGCGGCGTGAGCCGCAGCGGTGAGGGGCCCGCTCAGTGCGAGCGCATGATCCGTTGCAGGGCCTTATCGCCACTGGCT (double strand) [nagA promoter]” was tested, and the binding result ([2]; 100 uM c-di-AMP, stable complex at 2 uM protein) was “binds”, the binding result ([2]; no c-di-AMP, clear shift at 20 uM protein) was “binds” and the pKd ([3]; 100 uM c-di-AMP) was 6.36. For the same sequence, the pKd ([3]; no c-di-AMP) was 4.72.
